Test results published in article PMC10743472.
No constants are given. Whether binding was seen depends on the method and setting. Binding seen in cells or lysates may run through a third protein. Some binding calls cover weakened binding; strength is not graded here. Values belong to the substance of their own block, whether it stands above or below them.

The chains behind the UniProt entries cited, without tags or fusion partners. Residues count along the entry.
UniProt Q8K0D5, residues 38-751: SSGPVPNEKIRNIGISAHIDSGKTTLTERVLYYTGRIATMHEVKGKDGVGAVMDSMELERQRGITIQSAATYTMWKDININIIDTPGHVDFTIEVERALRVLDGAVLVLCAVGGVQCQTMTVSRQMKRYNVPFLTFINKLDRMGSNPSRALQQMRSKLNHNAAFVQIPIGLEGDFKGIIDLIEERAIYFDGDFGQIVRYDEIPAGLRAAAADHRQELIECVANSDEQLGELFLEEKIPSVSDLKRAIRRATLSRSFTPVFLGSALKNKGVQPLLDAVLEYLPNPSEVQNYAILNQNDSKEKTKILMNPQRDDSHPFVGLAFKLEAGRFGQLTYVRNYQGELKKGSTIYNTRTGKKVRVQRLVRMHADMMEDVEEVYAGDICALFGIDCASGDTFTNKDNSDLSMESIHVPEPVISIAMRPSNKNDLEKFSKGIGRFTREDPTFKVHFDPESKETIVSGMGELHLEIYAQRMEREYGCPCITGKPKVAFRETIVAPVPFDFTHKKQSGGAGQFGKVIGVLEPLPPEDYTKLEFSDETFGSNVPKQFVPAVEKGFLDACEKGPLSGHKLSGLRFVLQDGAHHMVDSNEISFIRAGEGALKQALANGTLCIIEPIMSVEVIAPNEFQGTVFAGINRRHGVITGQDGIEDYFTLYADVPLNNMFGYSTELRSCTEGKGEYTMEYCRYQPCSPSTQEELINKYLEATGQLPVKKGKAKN
UniProt Q8K2M0, residues 27-380: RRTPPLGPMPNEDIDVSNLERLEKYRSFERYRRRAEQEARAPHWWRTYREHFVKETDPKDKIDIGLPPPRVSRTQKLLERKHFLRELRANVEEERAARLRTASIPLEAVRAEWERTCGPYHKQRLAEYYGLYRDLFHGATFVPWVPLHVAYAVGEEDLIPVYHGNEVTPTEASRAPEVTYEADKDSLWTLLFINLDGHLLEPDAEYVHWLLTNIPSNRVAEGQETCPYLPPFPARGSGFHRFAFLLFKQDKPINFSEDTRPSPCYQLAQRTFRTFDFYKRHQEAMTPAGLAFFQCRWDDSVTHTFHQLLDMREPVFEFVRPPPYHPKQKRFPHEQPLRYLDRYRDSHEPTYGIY

Legend:
[1] = target: CLPX, specificity component of Clp protease complex, AAA+ ATPase (mouse (endogenous in mouse tissues)) (UniProt Q9JHS4); test: co-IP; pull with anti-CLPX (Invitrogen), CLPP detected with anti-CLPP (Proteintech) as positive control; tissue and fraction not told in the legend
[2] = target: GFM1, translation elongation factor G 1, mitochondrial (mouse (endogenous in mouse tissues)) (UniProt Q8K0D5); test: co-IP; mouse liver and testis whole-cell lysates, WT and CLPP-null; pull with anti-CLPX (NSJ Bioreagents) or anti-GFM1 (Proteintech) on Dynabeads, lysis buffer with 1% NP40, 137 mM NaCl, pH 8.0; immunoblot of endogenous proteins
[3] = target: CLPX, specificity component of Clp protease complex, AAA+ ATPase (mouse (endogenous in mouse tissues)) (UniProt Q9JHS4); test: co-IP; mouse liver mitochondrial fractions, WT and CLPP-null; pull with anti-CLPX (Invitrogen) on Dynabeads, lysis buffer with 1% NP40, 137 mM NaCl, pH 8.0; immunoblot of endogenous proteins
[4] = target: CLPX, specificity component of Clp protease complex, AAA+ ATPase (mouse (endogenous in mouse tissues)) (UniProt Q9JHS4); test: co-IP; mouse liver and testis whole-cell lysates, WT and CLPP-null; pull with anti-CLPX (NSJ Bioreagents) or anti-GFM1 (Proteintech) on Dynabeads, lysis buffer with 1% NP40, 137 mM NaCl, pH 8.0; immunoblot of endogenous proteins

binding [1]: binds
Substance: CLPP, ATP-dependent Clp protease proteolytic subunit, mitochondrial (from UniProt O88696 53-272)

binding [2]: binds
Substance: CLPX, specificity component of Clp protease complex, AAA+ ATPase (from UniProt Q9JHS4 57-634)

binding [3]: binds
Substance: GFM1, translation elongation factor G 1, mitochondrial (from UniProt Q8K0D5 38-751)

binding [4]: binds
Substance: MRPL38, mitochondrial ribosomal protein L38 (from UniProt Q8K2M0 27-380)
